Values of other authors, collected in patent publication US20160101079A1 (priority 2014, published 2016).
Some entries share one result that the patent states for a list of compounds. For at least one compound, name, drawing or mass did not settle the structure. Some compounds share one range, which may span the group rather than tell each member.

Test system: glycoprotein shedding (Ebola virus GP; TACE)

Compound	concentration at which inhibition of GP shedding was observed
COc1ccc(S(=O)(=O)N(Cc2cccnc2)[C@@H](C(=O)NO)C(C)C)cc1 [CGS-27023A]	25 to 50 mM
COc1ccc(S(=O)(=O)N(CC(=O)NO)CC(C)C)cc1 [MMP-3 inhibitor II]	25 to 50 mM
CC(C)C[C@H](CC(=O)NO)C(=O)N[C@@H](Cc1ccc2ccccc2c1)C(=O)N[C@@H](C)C(=O)NCCN [TAPI-I]	25 to 50 mM
